PubChem BioAssay AID493246 – Drosophila RNAi Screening Center | 2011
In all, the deposit lists about 21,000 reagents; below is a random part of those with a known target gene and a result. Of all reagents, 429 (2%) were called active. 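Values are raw and not normalised between plates; calls rest on per-plate z-scores that were not deposited.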 A number with no mark means an inactive call. Names joined by + are all predicted targets of the reagent. Not stated in the record: the amount of reagent, the time to read-out.

Aim: 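Genome-wide search for dsRNAs that reduce cell number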 (primary screen)
Cell system: Drosophila Kc and S2R+ cells
Reagents: long dsRNA against Drosophila genes
Detection: 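Cell number per well after knock-down, printed as raw plate values; calls were based on per-plate z-scores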
Direction: Kc cell number and S2R+ cell number: higher = more cells remaining
Hit rule: 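Active when the per-plate z-score of cell number is 3 or more in the direction of fewer cells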

With knock-down of CG6180 [DRSC02937], the screen gave Kc cell number, rep 1 = 1.37e6; Kc cell number, rep 2 = 1.41e6; S2R+ cell number, rep 1 = 1.05e6; S2R+ cell number, rep 2 = 1.11e6. Mul1 [DRSC08174] showed Kc cell number, rep 1 = 1.60e6; Kc cell number, rep 2 = 1.47e6; S2R+ cell number, rep 1 = 1.06e6; S2R+ cell number, rep 2 = 1.34e6. With knock-down of nerfin-2 [DRSC14547], the record shows Kc cell number, rep 1 = 1.63e6; Kc cell number, rep 2 = 1.61e6; S2R+ cell number, rep 1 = 1.25e6; S2R+ cell number, rep 2 = 1.30e6. With knock-down of Tbcd [DRSC00273], the record shows Kc cell number, rep 1 = 1.33e6; Kc cell number, rep 2 = 1.35e6; S2R+ cell number, rep 1 = 8.00e5; S2R+ cell number, rep 2 = 7.97e5. After knock-down of dsd [DRSC13829], the screen gave Kc cell number, rep 1 = 1.18e6; Kc cell number, rep 2 = 1.56e6; S2R+ cell number, rep 1 = 1.13e6; S2R+ cell number, rep 2 = 1.16e6. Silencing of dsd [DRSC15850] came out at: Kc cell number, rep 1 = 5.08e5; S2R+ cell number, rep 1 = 8.41e5.

Depletion of Ced-12 [DRSC02840] came out at: Kc cell number, rep 1 = 1.63e6; Kc cell number, rep 2 = 1.67e6; S2R+ cell number, rep 1 = 1.27e6; S2R+ cell number, rep 2 = 1.45e6. Against Srp9 [DRSC10973] the deposit lists Kc cell number, rep 1 = 1.47e6; Kc cell number, rep 2 = 1.56e6; S2R+ cell number, rep 1 = 1.18e6; S2R+ cell number, rep 2 = 1.25e6. Depletion of Cda5 [DRSC00003] came out at: Kc cell number, rep 1 = 1.43e6; Kc cell number, rep 2 = 1.39e6; S2R+ cell number, rep 1 = 1.02e6; S2R+ cell number, rep 2 = 1.16e6. With knock-down of Cda5 [DRSC00529], the screen gave Kc cell number, rep 1 = 1.50e6; Kc cell number, rep 2 = 1.52e6; S2R+ cell number, rep 1 = 1.07e6; S2R+ cell number, rep 2 = 1.22e6. Cda5 [DRSC00532] scored Kc cell number, rep 1 = 1.60e6; Kc cell number, rep 2 = 1.63e6; S2R+ cell number, rep 1 = 1.18e6; S2R+ cell number, rep 2 = 1.28e6. CG14795 [DRSC18513] gave Kc cell number, rep 1 = 1.52e6; Kc cell number, rep 2 = 1.57e6; S2R+ cell number, rep 1 = 9.12e5; S2R+ cell number, rep 2 = 9.97e5.

With knock-down of btv [DRSC01615] the results were Kc cell number, rep 1 = 1.65e6; Kc cell number, rep 2 = 1.64e6; S2R+ cell number, rep 1 = 1.02e6; S2R+ cell number, rep 2 = 1.24e6. For btv [DRSC02449] the deposit lists Kc cell number, rep 1 = 1.54e6; Kc cell number, rep 2 = 1.61e6; S2R+ cell number, rep 1 = 1.29e6; S2R+ cell number, rep 2 = 1.43e6. Silencing of RpL11 [DRSC07537] came out at: Kc cell number, rep 1 = 8.29e5 (active); Kc cell number, rep 2 = 1.00e6; S2R+ cell number, rep 1 = 5.98e5; S2R+ cell number, rep 2 = 6.65e5. Charon [DRSC00679] gave Kc cell number, rep 1 = 1.31e6; Kc cell number, rep 2 = 1.28e6; S2R+ cell number, rep 1 = 8.12e5; S2R+ cell number, rep 2 = 8.66e5. After knock-down of GC2 [DRSC14476], the record shows Kc cell number, rep 1 = 1.89e6; Kc cell number, rep 2 = 1.90e6; S2R+ cell number, rep 1 = 1.30e6; S2R+ cell number, rep 2 = 1.26e6. After knock-down of Hcf [DRSC17143], the record shows Kc cell number, rep 1 = 4.97e5; S2R+ cell number, rep 1 = 7.62e5.

Against RNF220 [DRSC15652] the deposit lists Kc cell number, rep 1 = 1.46e6; Kc cell number, rep 2 = 1.60e6; S2R+ cell number, rep 1 = 1.18e6; S2R+ cell number, rep 2 = 1.23e6. With knock-down of CG13193 [DRSC06318], the record shows Kc cell number, rep 1 = 1.67e6; Kc cell number, rep 2 = 1.65e6; S2R+ cell number, rep 1 = 1.24e6; S2R+ cell number, rep 2 = 1.44e6. Depletion of Gyc76C + CG42637 [DRSC11180] came out at: Kc cell number, rep 1 = 1.55e6; Kc cell number, rep 2 = 1.61e6; S2R+ cell number, rep 1 = 1.22e6; S2R+ cell number, rep 2 = 1.24e6.
